The values that follow are results of earlier work, collected in patent US20210230090A1, “METAL COMPLEXES OF B-DIKETONES AND/OR POLYPHENOLS BY GREEN CHEMISTRY, PREPARATION METHOD THEREOF, SUNSCREEN THEREOF, SKIN OR HAIR TONE CONCEALER THEREOF, HAIR DYEING THEREOF AND OTHER USES THEREOF” (priority 2018, published 2021).

For `COc1cc(/C=C/C(=O)CC(=O)/C=C/c2ccc(O)c(OC)c2)ccc1O` [curcumin, 1,7-Bis(4-hidroxy-3-methoxyphenyl)hepta-1,6-diene-3,5-dione], the solubility in water result (acidic and neutral pH conditions) is “almost insoluble”. Moreover, the solubility result (alkali medium) is “soluble”.
